# Results as given in PubChem BioAssay AID1259354 (Paczesny and Yang Labs, IUPUI and University of Michigan, 2018).
# The chains behind the UniProt entries cited, without tags or fusion partners. Where a name states a change or a piece, a line headed by the entry shows the natural chain unless it says otherwise.
# UniProt Q01638: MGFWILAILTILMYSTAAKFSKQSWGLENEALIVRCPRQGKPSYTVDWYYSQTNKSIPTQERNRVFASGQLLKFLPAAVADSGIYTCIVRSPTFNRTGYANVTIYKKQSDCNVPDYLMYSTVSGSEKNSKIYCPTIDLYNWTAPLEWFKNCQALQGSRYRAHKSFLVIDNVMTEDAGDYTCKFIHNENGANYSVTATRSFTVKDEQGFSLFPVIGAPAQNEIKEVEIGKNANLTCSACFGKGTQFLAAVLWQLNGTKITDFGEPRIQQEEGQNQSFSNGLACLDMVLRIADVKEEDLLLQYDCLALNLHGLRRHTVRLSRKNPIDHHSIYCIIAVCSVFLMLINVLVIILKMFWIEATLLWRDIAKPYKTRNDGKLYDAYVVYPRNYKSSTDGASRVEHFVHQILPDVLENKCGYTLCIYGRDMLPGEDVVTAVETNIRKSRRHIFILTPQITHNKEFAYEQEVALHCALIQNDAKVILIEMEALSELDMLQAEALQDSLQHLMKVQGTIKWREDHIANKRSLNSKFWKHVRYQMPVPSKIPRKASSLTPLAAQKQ
# Among all 78,000 compounds or so, about 1,800 (2.3%) were called active. The inconclusive results got no clear call from the source; some entries with a clear call stand among them for comparison. Rule as the data show it: active = inhibition above about 30%; inconclusive = mostly about 10% to 28%; inactive = weaker than that.
# Molecular target: Interleukin-1 receptor-like 1 (Homo sapiens) (UniProt Q01638)
# Assay: blocks human ST2 binding to IL-33, primary screen, biochemical, AlphaLISA (AID 1259354)
# Details: AlphaLISA ST2-Fc/biotin-IL-33 interaction, 1 h; at 17 µM, hits give high values
row,SMILES,inhibition
1,O[C@@H]1C[C@@H](c2nc(Cc3ccc(F)cc3Cl)no2)N(Cc2ccc(OC(F)(F)F)cc2)C1,inconclusive: 17%
2,O=C1Nc2ccc(Br)cc2C(O)(C(=O)NCc2ccc(F)cc2)N1c1ccccc1 (stereo unspecified),inconclusive: 17%
3,CCC1CCC(N2CCN(CC)CC2)CC1 (stereo unspecified),inconclusive: 18%
4,Cn1c(=O)n(C)c2cc(CNC(=O)c3n[nH]c4c3CCC4)ccc21,inconclusive: 10%
5,Cc1c(Cl)cccc1N=Cc1nc(-c2ccccc2)oc1O,inactive
6,CC(C)(C)c1ccc(C(=O)N2CCC(c3cc(CC(=O)O)[nH]n3)CC2)cc1,inconclusive: 15%
7,NC(=O)c1nnn(-c2nonc2N)c1-c1ccc([N+](=O)[O-])cc1,inconclusive: 12%
8,CCOc1ccc(NC(=O)c2cccc([N+](=O)[O-])c2)cc1,inactive
9,O=C(c1cc2n(n1)CCN(Cc1cnc(-c3ccco3)nc1)C2)N1CCCC1,inactive
10,CS(=O)(=O)NCCSc1ccc(Cl)cc1,inconclusive: 10%
11,COC(=O)c1cc(C(=O)OC)cc(-n2c(/C=C\c3ccc(F)cc3)nc3ccccc3c2=O)c1,inactive
12,O=C(CN1CCCN(Cc2cccc(Cl)c2)S1(=O)=O)NCc1ccc(F)cc1,inconclusive: 19%
13,Cc1cc(-c2c(-c3ccccc3)ncn2CCOc2nonc2C)n[nH]1,inactive
14,CCOC(=O)C1CCCN(C2CCN(Cc3nc(CCc4ccccc4)no3)CC2)C1 (stereo unspecified),inactive
15,CCCOc1ccc(NC(=O)c2cc(=O)n(C)c(=NC)s2)cc1Br,inconclusive: 23%
16,O=C(CCC(=O)N1CCCC1C(F)(F)F)NC1CCCCCCC1 (stereo unspecified),inconclusive: 15%
17,O=S(=O)(NCc1ccccc1)Nc1cccc(-c2cnc[nH]2)c1,inconclusive: 19%
18,O=C1OCCN1CCn1ccnc1-c1ccc(CO)o1,inconclusive: 14%
19,COc1ccc(-c2nc3cnccn3c2Nc2ccc3c(c2)OCCO3)cc1,inconclusive: 11%
20,CCOC(=O)C1(CCOC)CCN(C(=O)c2ccccc2-c2cccc(C)c2)CC1,inconclusive: 18%
21,COc1ccc(OC2CCN(C(C)=O)CC2)c(C(=O)N2CCCCC2c2cccnc2)c1 (stereo unspecified),inconclusive: 11%
22,Cc1ccccc1-c1nc(COc2ccc(C(N)=O)cc2)c(C)o1,inactive
23,CC1(C)CC(NC(=O)c2cccc(I)c2)CC(C)(C)N1,inactive
24,CSc1cccc(NC(=O)CN(c2cc(C)ccc2C)S(C)(=O)=O)c1,inconclusive: 20%
25,Cc1ccc(S(=O)(=O)N2CCC(C(=O)N3CCCC(C(F)(F)F)C3)CC2)cc1 (stereo unspecified),inconclusive: 16%
26,COc1ccccc1C(=O)N/C(=C\c1ccc2c(c1)OCO2)C(=O)NC(CC(C)C)C(=O)O (stereo unspecified),inactive

# Taken from above.
# Entry for `Cc1ccc(S(=O)(=O)N2CCC(C(=O)N3CCCC(C(F)(F)F)C3)CC2)cc1` (stereo unspecified) under inhibition: inconclusive: 16%
# Entry for `COc1ccc(OC2CCN(C(C)=O)CC2)c(C(=O)N2CCCCC2c2cccnc2)c1` (stereo unspecified) under inhibition: inconclusive: 11%
